The record followed here is the odorant receptor screen of Mainland et al. (2015).

Where “and” joins values, the source holds several entries; their conditions need not be identical. Equal entries are not always repeated. The list shows a part of the results. Each value is one well over the wells without odorant, computed here; the data are noisy.

The first experiment deals with OR4A15 A257V clone 1216. The experiment is described as follows: odorant receptor activation (CRE luciferase / Renilla) (fold of no-odor wells); higher = more activation. The settings on record: 100 µM.
As for `CCCCCCCC=CC=O` [2-decenal], the odorant receptor activation was 0.959.

Regarding `CC(C)C=O` [isobutyraldehyde], the odorant receptor activation worked out at 0.867.

`c1cnccn1` [pyrazine] returned an odorant receptor activation of 0.9.

Take `CC(=O)c1ccccc1` [acetophenone]: the odorant receptor activation was determined as 1.15.

The compound `CC(C)C(=O)O` [isobutyric acid] had an odorant receptor activation of 0.917.

Another experiment relates to OR4A16 clone 1518. The experiment is described as above. The following applies: 100 µM.
With `COC(=O)c1ccccc1` [methyl benzoate], the odorant receptor activation was 0.603 and 1.19.

As to `CCCCCCCOC(C)=O` [heptyl acetate], the odorant receptor activation was 0.72 and 1.25.

`COc1ccccc1O` [guaiacol]: the odorant receptor activation was 0.692 and 1.11.

Take `CC(=O)OCC=C(C)CCC=C(C)C` [geranyl acetate]: the odorant receptor activation was 0.851 and 1.49.

For `CC(=O)OC1CC2CCC1(C)C2(C)C` (stereo unspecified) [isobornyl acetate], the odorant receptor activation is 1.05 and 0.995.

With `CCCCCC(C)=O` [2-heptanone], the odorant receptor activation is 1.32 and 0.6.

Turning to `CCCCCOC(C)=O` [n-amyl acetate], the odorant receptor activation is 1.04 and 0.85.

Compound `CC12C=CCC1C1CCC3CC(=O)CCC3(C)C1CC2` (stereo unspecified) [androstenone] yielded an odorant receptor activation of 1.18.

On to `CCCCCCOC(=O)CCC` [hexyl butyrate], for which the odorant receptor activation was 1.16 and 1.07.

`CCC1(O)C2(C)CCC(C2)C1(C)C` (stereo unspecified) [2-ethylfenchol] registered an odorant receptor activation of 1.17.

For the compound `C=C(C)C1CC=CCC1` (stereo unspecified) [r-limonene], the odorant receptor activation is 0.837 and 0.918 and 0.871.

`CC1COCc2cc3c(cc21)C(C)(C)C(C)C3(C)C` (stereo unspecified) [galaxolide]: the odorant receptor activation was 6.7 and 5.61.

Take `CC(C)CC(=O)O` [isovaleric acid]: the odorant receptor activation amounted to 0.825.

For the compound `CC12C=CCC1C1CCC3=CC(=O)CCC3(C)C1CC2` (stereo unspecified) [androstadienone], the odorant receptor activation is 0.918 and 1.59.

The compound `CC(C)(C)c1ccc(CCC=O)cc1` [bourgeonal] displayed an odorant receptor activation of 0.794.

For the compound `O=C1CCCCCCCCCCCCCCO1` [pentadecalactone], the odorant receptor activation was found to be 0.688.

As for `CC1=NC(C)SC1C` (stereo unspecified), the odorant receptor activation is 1.17 and 1.01.

Compound `CCCCCC(=O)O` [caproic acid] gave an odorant receptor activation of 0.843.

In the case of `CCCCCCCCCCC=O` [undecanal], the odorant receptor activation was found to be 0.947.

As for `O=C1CCCCC1` [Cyclohexanone], the odorant receptor activation is 0.761 and 0.856.

In the case of `C=CCc1ccc(O)c(OC)c1` [eugenol], the odorant receptor activation was 1.36 and 1.16 and 1.2.

`CCCCCCCC=CC=O` [2-decenal] registered an odorant receptor activation of 2.04.

In the case of `CC(C)C=O` [isobutyraldehyde], the odorant receptor activation was 0.931 and 0.904.

As to `c1cnccn1` [pyrazine], the odorant receptor activation is 0.722.

For `CC(=O)c1ccccc1` [acetophenone], the odorant receptor activation was 1.04 and 0.901.

`CC(C)C(=O)O` [isobutyric acid]: the odorant receptor activation is 1.07 and 0.738.

Another experiment deals with OR4A4 clone 1134. Described as above. The settings on record: 100 µM.
In turn, `COC(=O)c1ccccc1` [methyl benzoate] registered an odorant receptor activation of 0.721.

Consider `CCCCCCCOC(C)=O` [heptyl acetate], for which the odorant receptor activation turned out to be 0.931.

For `COc1ccccc1O` [guaiacol], the odorant receptor activation is 0.74.

With `CC(=O)OCC=C(C)CCC=C(C)C` [geranyl acetate], the odorant receptor activation stood at 0.881.

For the compound `CC(=O)OC1CC2CCC1(C)C2(C)C` (stereo unspecified) [isobornyl acetate], the odorant receptor activation stood at 0.939.

As for `CCCCCC(C)=O` [2-heptanone], the odorant receptor activation worked out at 0.866.

Consider `CCCCCOC(C)=O` [n-amyl acetate], for which the odorant receptor activation was 0.474.

As to `CC12C=CCC1C1CCC3CC(=O)CCC3(C)C1CC2` (stereo unspecified) [androstenone], the odorant receptor activation stood at 4.4.

As for `CCCCCCOC(=O)CCC` [hexyl butyrate], the odorant receptor activation came to 0.911.

In turn, `CCC1(O)C2(C)CCC(C2)C1(C)C` (stereo unspecified) [2-ethylfenchol] came in with an odorant receptor activation of 1.14.

`CC1COCc2cc3c(cc21)C(C)(C)C(C)C3(C)C` (stereo unspecified) [galaxolide] returned an odorant receptor activation of 0.685.

`CC(C)CC(=O)O` [isovaleric acid] yielded an odorant receptor activation of 1.12.

`CC12C=CCC1C1CCC3=CC(=O)CCC3(C)C1CC2` (stereo unspecified) [androstadienone] yielded an odorant receptor activation of 0.764.

`CC(C)(C)c1ccc(CCC=O)cc1` [bourgeonal]: the odorant receptor activation worked out at 0.893.

`O=C1CCCCCCCCCCCCCCO1` [pentadecalactone] gave an odorant receptor activation of 0.926.

`CC1=NC(C)SC1C` (stereo unspecified) came in with an odorant receptor activation of 0.583.

`CCCCCC(=O)O` [caproic acid] had an odorant receptor activation of 1.07.

`CCCCCCCCCCC=O` [undecanal] came in with an odorant receptor activation of 1.08.

The compound `O=C1CCCCC1` [Cyclohexanone] returned an odorant receptor activation of 0.556.

Take `C=CCc1ccc(O)c(OC)c1` [eugenol]: the odorant receptor activation was 3.01 and 1.67.

As for `CCCCCCCC=CC=O` [2-decenal], the odorant receptor activation was 1.22.

Regarding `CC(C)C=O` [isobutyraldehyde], the odorant receptor activation stood at 0.79.

`c1cnccn1` [pyrazine] came in with an odorant receptor activation of 1.18.

Regarding `CC(=O)c1ccccc1` [acetophenone], the odorant receptor activation amounted to 1.14.

On to `CC(C)C(=O)O` [isobutyric acid], for which the odorant receptor activation came out at 0.845.

The test system of another experiment is OR4A47 I104L/V145M clone 1579. The experiment is described as above. The settings on record: 100 µM.
`CCCCCCCOC(C)=O` [heptyl acetate] yielded an odorant receptor activation of 0.648.

Take `COc1ccccc1O` [guaiacol]: the odorant receptor activation was determined as 0.665.

Consider `C=C(C)C1CCC2=CC(=O)CC(C)C2(C)C1` (stereo unspecified) [amyl laurate], for which the odorant receptor activation was 1.01.

`CC(=O)OCC=C(C)CCC=C(C)C` [geranyl acetate] showed an odorant receptor activation of 1.14.

For `CC(=O)OC1CC2CCC1(C)C2(C)C` (stereo unspecified) [isobornyl acetate], the odorant receptor activation was determined as 1.09.

Regarding `CCCCCOC(C)=O` [n-amyl acetate], the odorant receptor activation came to 0.827.

`CCCCCCOC(=O)CCC` [hexyl butyrate] had an odorant receptor activation of 0.791.

As for `CCC1(O)C2(C)CCC(C2)C1(C)C` (stereo unspecified) [2-ethylfenchol], the odorant receptor activation amounted to 0.65.

The compound `C=C(C)C1CC=CCC1` (stereo unspecified) [r-limonene] gave an odorant receptor activation of 1.15.

On to `CCCCCCC=O` [heptaldehyde], for which the odorant receptor activation amounted to 0.587.

The compound `CC(C)CC(=O)O` [isovaleric acid] showed an odorant receptor activation of 1.17.

As to `CC(C)(O)CCCC1=CCC(C=O)CC1` (stereo unspecified) [lyral], the odorant receptor activation was 0.823.

Compound `O=C1CCCCCCCCCCCCCCO1` [pentadecalactone] displayed an odorant receptor activation of 0.836.

On to `CCCCCC(=O)O` [caproic acid], for which the odorant receptor activation is 0.862.

Regarding `CCCCCCCCCCC=O` [undecanal], the odorant receptor activation stood at 0.738.

In the case of `C=CCc1ccc(O)c(OC)c1` [eugenol], the odorant receptor activation stood at 1.06.

With `CCCCCCCC=CC=O` [2-decenal], the odorant receptor activation stood at 0.984.

Compound `CC(C)C=O` [isobutyraldehyde] yielded an odorant receptor activation of 0.96.

With `c1cnccn1` [pyrazine], the odorant receptor activation is 0.819.

Take `CC(C)C(=O)O` [isobutyric acid]: the odorant receptor activation stood at 0.993.
